Experimental data: PubChem BioAssay AID1259254 (NCATS, 2017)

Screen: 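Gene knock-downs that lead to re-replication, shown by excess G2 DNA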 (primary screen)
Cells: human HCT116 colorectal cancer cells
Reagent: single siRNA against human genes
Duration: 3 days
Measurement: 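Nuclei stained with Hoechst and imaged; cell-cycle phase assigned by DNA content; G2 share scaled per plate, non-targeting siRNA 0%, GMNN siRNA 100%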
Direction: G2 robust z-score and G2 cells, % of GMNN control: higher = more G2 cells, more excess DNA replication; raw share of cells in G2: higher = larger share of cells with G2 DNA content
Call rule: 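Active siRNAs have a G2 robust z of 5 or more median absolute deviations over the median, which in these data means about 38% or higher of GMNN control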
In all, the deposit lists about 59,000 reagents; this is a part drawn at random. In the full data, about 1,550 (2.6%) got an active call. 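G2 share is only a proxy for re-replication; each gene was hit by three separate siRNAs, and active genes were retested.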 Raw values are not corrected between plates. Entries without a mark were called inactive. Reagents against one gene are numbered here. No sequences are given here. Not stated in the record: the amount of reagent.

The opening 2 records, to show the layout:
gene knocked down	siRNA no.	G2 robust z-score	G2 cells, % of GMNN control	raw share of cells in G2 (%)
CSF3R	1	-0.386	0.249	5.05
CSF3R	2	-0.601	-1.26	4.53

Main list, repeating the preview:
gene knocked down	siRNA no.	G2 robust z-score	G2 cells, % of GMNN control	raw share of cells in G2 (%)
CSF3R	1	-0.386	0.249	5.05
CSF3R	2	-0.601	-1.26	4.53
CSF3R	3	4.15	32.2	15.2
MED12L	1	3.24	25.7	17.6
MED12L	2	-0.347	0.528	5.19
MED12L	3	-0.549	-0.896	4.14
FOXR2	1	7.67 (active)	56.9	25.5
FOXR2	2	0.00387	2.99	5.96
FOXR2	3	1.13	10.9	11.2
STMN4	1	-0.982	-3.94	1.3
STMN4	2	0.108	3.73	5.99
STMN4	3	0.239	4.65	6.34
XPO7	1	-0.674	-1.77	3.26
XPO7	2	-0.302	0.843	4.44
XPO7	3	-1.06	-4.47	4.57
SECISBP2L	1	-0.336	0.606	5.6
SECISBP2L	2	-0.212	1.48	4.56
SECISBP2L	3	-0.172	1.76	4.04
BMP5	1	-1.07	-4.56	3.45
BMP5	2	-1.42	-7.02	2.33
BMP5	3	-0.243	1.26	4.46
EIF3FP3	1	0.261	4.81	5.64
EIF3FP3	2	0.308	5.13	5.5
EIF3FP3	3	0.427	5.97	6.59
IPO9	1	-0.504	-0.58	4.3
IPO9	2	-0.943	-3.67	2.62
IPO9	3	-0.514	-0.65	2.93
SPN	1	0.886	9.2	9.21
SPN	2	2.76	22.4	12.8
SPN	3	4.48	34.5	15.6
SMC1B	1	0.525	6.66	9.19
SMC1B	2	-0.369	0.37	4.31
SMC1B	3	-0.402	0.137	4.03
PNPLA6	1	-0.641	-1.54	3.34
PNPLA6	2	-0.528	-0.749	5.37
PNPLA6	3	-0.781	-2.52	5.48
OR5L2	1	9.04 (active)	66.6	29.5
OR5L2	2	-0.566	-1.01	3.5
OR5L2	3	-0.718	-2.08	2.57
NYNRIN	1	-0.683	-1.84	3.62
NYNRIN	2	-0.393	0.205	4.56
NYNRIN	3	-0.558	-0.959	2.73
TNFAIP3	1	3.87	30.2	16.2
TNFAIP3	2	3.84	30	16.2
TNFAIP3	3	0.288	4.99	6.47
MT1B	1	2.67	21.8	14.2
MT1B	2	2.67	21.8	12.8
MT1B	3	1.62	14.3	8.54
ABCA6	1	-0.276	1.02	4.22
ABCA6	2	-0.351	0.498	4.32
ABCA6	3	0.996	9.97	10.4
RPP30	1	-0.894	-3.33	4.25
RPP30	2	-1.13	-4.99	2.23
RPP30	3	-0.434	-0.088	6.44
MOGAT2	1	0.701	7.9	7.71
MOGAT2	2	1.71	15	11.7
MOGAT2	3	2.2	18.4	10.9
PPME1	1	0.226	4.56	8.02
PPME1	2	0.204	4.41	5.87
PPME1	3	-0.15	1.91	4.53
AGR2	1	-0.346	0.535	5.57
AGR2	2	-0.595	-1.22	3.44
AGR2	3	-0.625	-1.43	2.89
ESAM	1	2.61	21.3	15.6
ESAM	2	-0.756	-2.35	3.96
ESAM	3	2.29	19.1	11.7
ATP10D	1	-0.185	1.67	6.34
ATP10D	2	-0.84	-2.94	3.31
ATP10D	3	-0.353	0.482	4.4
TRIM17	1	-0.706	-2	3.03
TRIM17	2	-0.743	-2.26	4.93
TRIM17	3	-0.155	1.88	4.94
CCN1	1	0.98	9.86	9.17
CCN1	2	-0.269	1.08	4.65
CCN1	3	1.57	14	8.41
DMBT1L1	1	1.96	16.8	9.3
DMBT1L1	2	0.0267	3.16	5.33
DMBT1L1	3	2.04	17.3	9.06
CNTNAP3B	1	4.45	34.3	15.5
CNTNAP3B	2	-0.228	1.37	4
CNTNAP3B	3	2.47	20.3	13.3
CNTNAP3B	4	1.1	10.7	7.72
CNTNAP3B	5	-0.82	-2.8	2.27
CNTNAP3B	6	0.473	6.29	4.98
TFCP2L1	1	1.93	16.6	8.64
TFCP2L1	2	-0.492	-0.492	5.69
TFCP2L1	3	0.719	8.02	6.15
